Test results published in patent US20250296961A1, “ANTIMICROBIAL PEPTIDES FOR REMINERALIZATION OF TEETH AND PREVENTION OF DENTAL CARIES” (The University of Hong Kong, priority 2021, published 2025).
Part of at least one peptide drawing is inferred or uncertain, most often the ends. Residues, ends and D or L forms follow the SMILES beside them.

Key:
[1] = Adsorption capacity assay: peptides with HA particles (Micro BCA); type: binding
Description: The adsorption of P-113, P-113-DPS, P-113-DA, and P-113-SK to HA particles (Sigma Chemical Co., St Louis, USA) was measured using the Micro BCA method with Sp-H5 as the control group. Solutions of P-113, P-113-DPS, P-113-DA, P-113-SK and Sp-H5 in 10 mM HEPES buffer (pH 7) were diluted to 10 nmol/mL concentrations, and 200 μL was placed into each tube (P-113, N=10; P-113-DPS, N=10; P-113-DA, N=10; P-113-SK, N=10; and Sp-H5, N=10). Peptide solutions were mixed with (n=5) or without (n=5) HA particles (20 mg/tube) in each group. Tubes were placed onto a rotator overnight at 37° C. for complete reaction. Tubes containing the peptide solution and HA were centrifuged (13000 rpm, 1 min) and the supernatant collected. Bovine serum albumin (BSA) standard solutions (working range=5-250 μg/mL) and working reagent were prepared using the Pierce BCA Protein Assay Kit (Rockford, IL, USA). Working reagents (100 μL/well) were added to a 96-well plate, followed by standard and peptide solutions (100 μL/well). The Plate was incubated in the dark for 30 min and the absorbance (562 nm) measured using a plate reader. The concentration (C) of the BSA standard solution was linear with the absorbance (A) at 562 nm. The function of C=a*A+b was determined (a and b as constants). The final concentration (the peptide solution mixed with HA) and the initial concentration (the peptide solution without HA) were computed using the function and the generated absorbance data of the peptide solution mixed with and without HA.

[2] = system: S. mutans biofilms; type: cell-based
Description: Streptococcus mutans (ATCC 35668, ATCC, Manassas, USA) were cultured in Horse Blood Medium under anaerobic (85% N2, 10% H2, and 5% CO2) conditions at 37° C. Cells were harvested by centrifugation (5000 rpm, 10 min), washed once with 10 mM sodium phosphate-buffered saline (PBS, pH 7.2), and resuspended in brain-heart infusion broth (BHI, Difco Laboratories, Detroit, USA) at a concentration of 10^6 CFU/mL.
S. mutans biofilms were cultured on enamel working surfaces in a 96-well plate. Tooth slices (N=32) were autoclave-sterilized prior to anti-biofilm activity testing. 200 μL S. mutans in BHI (10^6 CFU/mL) was added to each well. After a 24-h incubation at 37° C., each tooth slice was washed once with PBS. […] (in 10 mM HEPES). After incubation, tooth slices were washed once with PBS. One tooth slice at random in each group was stained with the LIVE/DEAD BacLight Bacterial Viability Kit (L7012, Thermo Fisher Scientific, Waltham, USA) and incubated in the dark for 30 min. Fluorescence images were obtained using confocal laser scanning microscopy (CLSM, Fluoview 1000, Olympus, USA). A separate tooth slice was used for the counting of colony-forming units (CFU). Tooth slices were placed in 1 mL BHI solution, and adherent biofilms were removed from the enamel surfaces by sonication for 30 sec. Ten-fold serial dilutions of the suspensions were plated in duplicate on horse blood agar. CFU's were counted after 48-h incubation. Three independent biofilm experiments were performed.

[3] = Remineralization assay of peptide-coated enamel (Example 1); set-up: species or system human
Description: 3×3×1.5 mm^3 (number: 197) tooth slices were prepared using a water-cooled diamond saw (IsoMet low-speed saw, Buehler, Lake Bluff, IL, USA). One working surface of complete enamel tissue from each tooth slice was generated using the MicroCT Skyscan 1172 (Bruker MicroCT, Kontich, Belgium). The enamel working side of the tooth slice was polished and other sides marked with acid-proof nail polish. All tooth slices were cleaned and stored in deionized water at 4° C.
The enamel working surface of tooth slices (N=30) was acid-etched in 37% phosphoric acid for 1 min and rinsed with deionized water for 1 min. The slices were immersed in 8 μmol/mL P-113, P-113-DPS, P-113-DA, P-113-SK, Sp-H5 (n=5 for each) solutions (in 10 mM HEPES) or HEPES (control) overnight. All tooth slices were incubated in 7 mL remineralization solution (2.58 mM CaCl2)·2H2O, 1.55 mM KH2PO4, 10 mg/L NaF, 180 mM NaCl, 50 mM Tris-HCl, pH 7.6) for 24 h. The enamel surface and cross-section morphology were analyzed by FE-SEM (Hitachi, S4800). Ca/P concentrations in the solutions before and after immersion were calculated by ICP-OES. The mean values for Ca/P gain were analyzed using ANOVA at the 1‰ significance level.

With `C[C@H](N)C(=O)N[C@@H](CCCCN)C(=O)N[C@@H](CCCNC(=N)N)C(=O)N[C@@H](Cc1c[nH]cn1)C(=O)N[C@@H](Cc1c[nH]cn1)C(=O)NCC(=O)N[C@@H](Cc1ccc(O)cc1)C(=O)N[C@@H](CCCCN)C(=O)N[C@@H](CCCNC(=N)N)C(=O)N[C@@H](CCCCN)C(=O)N[C@@H](Cc1ccccc1)C(=O)N[C@@H](Cc1c[nH]cn1)C(=O)N[C@@H](COP(=O)(O)O)C(=O)N[C@@H](COP(=O)(O)O)C(=O)O` [Peptide P-113-DPS] (HELM PEPTIDE1{A.K.R.H.H.G.Y.K.R.K.F.H.[O=C([C@H](COP(=O)(O)O)N[*:1])[*:2]].[O=C(O)[C@H](COP(=O)(O)O)N[*:1]]}$$$$V2.0) as the molecule, how does the “Concentration change (95% CI)” value ([1]; initial vs final concentration with HA particles) read?
The value was 4.13 (3.28-4.88).

And the “Final concentration (Mean ± SD)” value ([1]; peptide solution mixed with HA particles (20 mg/tube), overnight 37° C.)?
The value was 6.56 ± 0.78 nM mL^−1.

What about the “Viability counts of S. mutans biofilms” value ([2]; 64 μmol/mL, 24 h exposure) of the same molecule?
Its value is 5.47E+04 CFU/mL.

And the “CLSM live/dead state of S. mutans biofilm” value ([2]; 64 and 128 μmol/mL, 24 h)?
The value was “the majority of S. mutans were dead”.

And the “Thickness of the regenerated crystal layer on the enamel surface” value ([3]; 8 μmol/mL coating, remineralization solution 24 h, FE-SEM)?
The value was 8.5 μm.

What about the “Ca gain (ICP-OES)” value ([3]; 24 h, P<0.001) of the same molecule?
The value was “significant Ca gain in the P-113-DPS group compared with other groups”.

What about the “P gain (ICP-OES) vs control group” value ([3]; 24 h, P<0.001) of the same molecule?
The value was “significant P gain”.
